Laboratory results published in article PMC8934857.
These are yes or no findings as the source states them, for the method shown. In cells and extracts the contact can be indirect. Binding calls can cover weak binding; strength is not graded here.

T1: Annexin A1 (ANXA1) (human (endogenous in U251 MG)) (UniProt P04083)
T1 sequence: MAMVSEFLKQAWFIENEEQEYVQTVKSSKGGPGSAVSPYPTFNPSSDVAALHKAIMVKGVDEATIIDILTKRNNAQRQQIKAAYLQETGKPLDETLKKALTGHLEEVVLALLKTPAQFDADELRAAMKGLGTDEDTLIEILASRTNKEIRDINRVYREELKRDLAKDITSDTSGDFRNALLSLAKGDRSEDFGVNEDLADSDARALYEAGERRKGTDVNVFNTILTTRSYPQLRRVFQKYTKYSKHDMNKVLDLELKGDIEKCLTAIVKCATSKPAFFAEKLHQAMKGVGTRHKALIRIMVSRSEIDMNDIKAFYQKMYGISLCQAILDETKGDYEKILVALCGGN


Tests used:
[1] = biological target: T1, Annexin A1 (ANXA1) (human (endogenous in U251 MG)); test: co-IP; endogenous co-IP from U251 MG cell lysate (medium-strength lysis buffer); anti-ANXA1 or anti-TNFR1 antibody overnight at 4°C, Protein A/G PLUS-Agarose, IgG as control; western blot
[2] = biological target: Tumour necrosis factor receptor 1 (TNFR1) (human (endogenous in U251 MG)); test: as above

binding [1]	Molecule	binding [2]
binds	Tumour necrosis factor receptor 1 (TNFR1) (human (endogenous in U251 MG))	–
–	Annexin A1 (ANXA1) (protein, UniProt P04083 1-346) MAMVSEFLKQAWFIENEEQEYVQTVKSSKGGPGSAVSPYPTFNPSSDVAALHKAIMVKGVDEATIIDILTKRNNAQRQQIKAAYLQETGKPLDETLKKALTGHLEEVVLALLKTPAQFDADELRAAMKGLGTDEDTLIEILASRTNKEIRDINRVYREELKRDLAKDITSDTSGDFRNALLSLAKGDRSEDFGVNEDLADSDARALYEAGERRKGTDVNVFNTILTTRSYPQLRRVFQKYTKYSKHDMNKVLDLELKGDIEKCLTAIVKCATSKPAFFAEKLHQAMKGVGTRHKALIRIMVSRSEIDMNDIKAFYQKMYGISLCQAILDETKGDYEKILVALCGGN	binds
